Results deposited as PubChem BioAssay AID504808 (Drosophila RNAi Screening Center, 2011)
In all, the deposit lists about 21,000 reagents; this is a random part of those with a known target gene and a result. In the full data, 18 (0.084%) got an active call. 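Raw counts without plate normalisation, one of two replicates; the ratio scores behind the calls were not deposited.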 A number with no mark means an inactive call. A plus sign joins genes that one reagent is predicted to hit. Reagent sequences are not shown. The record does not give: the amount of reagent, the time to read-out.

Screen: 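Chromatin factors that keep E2F targets switched off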 (primary screen)
System: Drosophila S2 cells
Reagents: long dsRNA against Drosophila genes
Read-out: 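Firefly luciferase driven by E2F sites, normalised to Renilla luciferase on the same minimal promoter, measured by plate reader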
Scale: E2F firefly: higher = more E2F reporter activity; Renilla normaliser: higher = more normaliser reporter signal
Active means: 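a knock-down counted as active when the firefly/Renilla E2F signal rose above 50%, a threshold chosen arbitrarily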

target | PubChem SID | E2F firefly, rep 1 | Renilla normaliser, rep 1
Ptr | SID104184644 | 1.04e5 | 4302
CG3483 | SID104184163 | 75633 | 3354
Cht8 | SID104184338 | 86306 | 4148
zuc | SID104181952 | 82186 | 3102
CG31036 | SID104194847 | 1.29e5 | 6817
CG31036 | SID104194849 | 1.33e5 | 6656
CG7950 + Rpp14a | SID104196145 | 1901 | 820
CG8206 | SID104199885 | 8288 | 776
Su(fu) | SID104196663 | 66172 | 3784
Or69a | SID104191035 | 1.31e5 | 7374
CG4681 | SID104184273 | 1.08e5 | 4709
CG42565 | SID104183946 | 1.04e5 | 4254
Vps13D | SID104189610 | 1.26e5 | 6589
Vps13D | SID104189611 | 1.39e5 | 6673
CG17598 | SID104200428 | 1.63e5 | 5500
CG42671 | SID104188885 | 50895 | 3311
CG42671 | SID104190113 | 1.11e5 | 5565
Dro | SID104187198 | 1.04e5 | 4706
Nuf2 | SID104182915 | 1.12e5 | 5382
bark | SID104180427 | 1.41e5 | 5454
Rab8 | SID104191053 | 76736 | 3308
CG10516 | SID104189530 | 1.66e5 | 7780
CG8851 | SID104180510 | 1.41e5 | 5164
ND-75 | SID104198478 | 1.14e5 | 4985
Hmr | SID104197532 | 1.18e5 | 5815
COX7B | SID104190687 | 1.89e5 | 9986
CG9752 | SID104184354 | 83534 | 3885
dyw | SID104198020 | 1.18e5 | 6314
Rdh | SID104187855 | 1.03e5 | 4140
Rdh | SID104188226 | 94769 | 4143
CG15185 | SID104192357 | 1.37e5 | 6035
CG8630 | SID104196233 | 94135 | 6329
Slh | SID104180581 | 1.50e5 | 6229
olf186-M | SID104187449 | 1.46e5 | 4838
sni | SID104197562 | 8050 | 896
ND-13A | SID104182902 | 1.45e5 | 4958
salt | SID104195219 | 2083 | 1308
Osi17 | SID104192076 | 1.08e5 | 4957
dj-1beta | SID104194391 | 1.25e5 | 6439
Uev1A | SID104189555 | 85360 | 3838
Cyp4g1 | SID104198251 | 1690 | 936
CG33330 (retired record) | SID104192845 | 95956 | 3410
CG33330 (retired record) | SID104195287 | 73589 | 3651
lncRNA:CR40629 | SID104200751 | 89388 | 2636
CG31272 | SID104195850 | 1.31e5 | 5991
CG4291 | SID104180442 | 78949 | 3801
CG31769 | SID104181153 | 1.32e5 | 5411
tara | SID104196868 | 1.10e5 | 5396
Plod | SID104190393 | 79281 | 3691
Plod | SID104190394 | 1.10e5 | 6075
CG31937 | SID104180306 | 87245 | 3267
mat | SID104188168 | 87254 | 3996
CG11106 | SID104199173 | 1.16e5 | 6003
nebu | SID104189599 | 69059 | 3524
nebu | SID104189600 | 1.49e5 | 7814
und | SID104183421 | 78894 | 3436
CG43345 | SID104182956 | 81212 | 3401
fus | SID104185361 | 1.33e5 | 5104
fus | SID104186899 | 86090 | 3421
nompB | SID104183493 | 1.07e5 | 4187
nompB | SID104183523 | 1.15e5 | 4908
Sec16 | SID104199580 | 1.17e5 | 5979
Sec16 | SID104199650 | 1.30e5 | 6520
2mit | SID104193986 | 1.22e5 | 6434
2mit | SID104195016 | 1.16e5 | 5802
galla-2 | SID104190728 | 1.15e5 | 6022
kin17 | SID104191682 | 1.12e5 | 7794
msps | SID104196796 | 79802 | 4184
Rdl | SID104191056 | 75489 | 3714
mRpL36 | SID104190129 | 1.08e5 | 3914
CG17050 (retired record) | SID104186443 | 96808 | 3800
CG14598 | SID104192333 | 1.31e5 | 6477
Acsx3 | SID104194101 | 67924 | 3424
CG15412 | SID104180219 | 1.68e5 | 5210
CG14630 | SID104197958 | 51620 | 3756
CG14630 | SID104198445 | 49532 | 3470
Vps51 | SID104186311 | 74794 | 3862
CG10660 | SID104189561 | 71660 | 5547
PNUTS | SID104180430 | 67964 | 3673
Mdr65 | SID104191012 | 1.11e5 | 4604
BOD1 | SID104195616 | 1586 | 684
ATP6AP2 | SID104196212 | 1.25e5 | 5597
CG31249 | SID104196040 | 1.45e5 | 8861
CG15499 (retired record) | SID104194833 | 1.36e5 | 6117
to | SID104196878 | 96305 | 5172
CG30398 | SID104183683 | 1.17e5 | 4790
CG12814 | SID104194344 | 63600 | 3456
CG12814 | SID104194345 | 1.43e5 | 6569
Eip74EF | SID104190405 | 50032 | 3475
Eip74EF | SID104190952 | 1.43e5 | 7009
CG5639 | SID104195643 | 1.12e5 | 7655
CG42249 | SID104199175 | 1.12e5 | 5642
CG42249 | SID104199618 | 35873 | 2851
CG14401 | SID104182177 | 1.05e5 | 4158
CG2006 + Spase12 | SID104194108 | 1.13e5 | 6349
Galk | SID104190292 | 69798 | 3197
CG8001 | SID104188403 | 67412 | 2951
CycJ | SID104188445 | 68470 | 3340
Polr2A | SID104200072 | 4724 | 672
sky | SID104182175 | 78415 | 3419
sky | SID104183006 | 69977 | 3463
sky | SID104183007 | 92032 | 4250
eIF3g1 | SID104198219 | 1303 | 976
CG18814 | SID104190139 | 1.68e5 | 6434
GstE10 | SID104186463 | 1.50e5 | 4770
CG17270 | SID104195001 | 60907 | 3571
CG18343 | SID104186518 | 91209 | 3797

Taken from above:
Value for CG17050 (retired record) [SID104186443] under “Renilla normaliser, rep 1”: 3800
For “Renilla normaliser, rep 1”, CG14598 [SID104192333] shows 6477
For “E2F firefly, rep 1”, Galk [SID104190292] reads 69798
For “Renilla normaliser, rep 1”, Polr2A [SID104200072] shows 672
Dro [SID104187198], E2F firefly, rep 1 = 1.04e5
Rdh [SID104187855], Renilla normaliser, rep 1: 4140
